Measurements: patent US7037645B2, “Methods for identification of CDS8+ suppressor molecules” (priority 2000, dated 2006)
Some entries share one result that the patent states for a list of compounds.

Test system: CXCR4 dependent pseudotyped virus (NL4-3)
Experiment: Single cycle HIV infection assay, pseudotyped luciferase reporter virus, time of addition
Conditions: DP178 20 μg/ml, mAb#19 20 μg/ml, nevirapine 0.2 μM, Tat inhibitor 50 μM

enfuvirtide
time post virus exposure within which addition suppresses pseudotyped virus replication: 2 to 6 h
